{"source": "patent US20220008500A1", "about": "“COMPOSITIONS AND METHODS FOR TREATING HEART FAILURE” (The George Washington University, priority 2017, published 2022)", "origin": "cited, not measured here", "details": "cited from earlier work", "note": "At least one structure is not confirmed: it was looked up by name or label, or the drawing left a doubt.", "data": [{"smiles": "C[N+]1([O-])CCN(C2=Nc3cc(Cl)ccc3Nc3ccccc32)CC1", "note": "[CNO, clozapine N-oxide]", "values": [{"measurement": "Crossing of the blood-brain-barrier", "value": "does not cross the blood-brain-barrier"}]}]}
